Measured values reported in the supplement of paper PMC10338343.
± gives the standard deviation. The list shows a part of the results. The uncertainty is large for many entries.

system: EfPiwi piRISC loaded with L1MC piRNA (26 nt); experiment: pre-steady-state target cleavage rate (min^-1); guide: L1MC piRNA 5'p-UAACUAAAUACUAUGCAAGCUGUAGG; MIWI and MILI are mouse PIWI proteins and EfPiwi is from a freshwater sponge; tags in brackets are library labels; higher = faster piRNA-guided slicing of the target; conditions: auxiliary factor: 500 nM Ephydatia muelleri Gtsf1
Procedure, shortened: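 Cleave-'n-Seq: 1 nM active affinity-purified piRISC with one synthetic guide and 0.1 nM transcribed, DNA-blocked target RNA library were mixed, with or without 500 nM GTSF1 partner protein, in HEPES–potassium acetate buffer at 33 °C for 0–8 or 0–960 min. Uncleaved targets were sequenced and normalised to depth and to weakly complementary targets, three trials were pooled, and k3 was capped at 0.0001 min^-1. The pre-steady-state cleavage rate was fitted […].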

Sequence | pre-steady-state target cleavage rate
UCCUGGAUGUGUCUUGCAUAGUAUUUAGUUA | 0.113 ± 0.038
UCCUGGUACAGCAUGCAUAGUUUUUAGUUA | 0.0046 ± 0.0027
UCCUGGAUGUCGAUCCUUAGUAUUUAGUUA | 0.000608 ± 0.0073
UCCUGCUUCAGCUUGCAUAGUAUUUAGAUA | 0.00521 ± 0.0024
UCCUGCUACUCCUUGCAUAGUAUUUAGUUA | 0.0106 ± 0.004
UCCUGGAUGUCGAACCAAUGUAUUUAGUUA | 0.000276 ± 0.018
UCCUGCUUCAGCUUGGAUAGUAUUUAGUUA | 0.0331 ± 0.007

same assay, conditions: auxiliary factor: none (no Gtsf1)

Sequence | pre-steady-state target cleavage rate
UCCUGCUACAGCUUGCAUAGUCUUUAGUUA | 0.000283 ± 0.012
UCCUGGAUAAGCUUGCAUAGUAUUUAGUUA | 0.000681 ± 0.018
UCCUGGAACAGCUUGCAUAGUAUUUAGUCA | 0.000531 ± 0.017
UCCUCCUACAGCUUGCAAUGUAUUUAGUUA | 0.000965 ± 0.0079
UCCUGGAACAGCUAGCAUAGUAAUUAGUUA | 0.0005 ± 0.014
UCCUGGAUGUCGAACCAUAGAAAUUAGUUA | 0.000101 ± 0.025
UCCUGGUACAGCUUGCAUAGUAUUUAGUGA | 0.00109 ± 0.0083
UCCUGCUACAGCUUUCAUAGUAUUUAGUUA | 0.000621 ± 0.011
UCCUGGUACAGCUUGCAUAGUAUAUUGUUA | 0.000409 ± 0.023

Given as a markdown table: entries from further up

| Sequence | pre-steady-state target cleavage rate |
| --- | --- |
| UCCUGGUACAGCUUGCAUAGUAUUUAGUGA | 0.00109 ± 0.0083 |
| UCCUGCUACAGCUUUCAUAGUAUUUAGUUA | 0.000621 ± 0.011 |
| UCCUGGUACAGCUUGCAUAGUAUAUUGUUA | 0.000409 ± 0.023 |
